No constants are given. Whether binding was seen depends on the method and setting. Binding seen in cells or lysates may run through a third protein. Some entries that bind do so weakly or less than the wild type.
How the values were obtained:
GST-TLX(1-385) = GST-TLX(1-385) (UniProt Q9Y466); test: pull-down; GST-fusion protein bound to glutathione-sepharose beads incubated with lysates of TLX-transduced LNCaP cells overnight at 4 °C; washed with TIF buffer (150 mM NaCl, 20 mM Tris, 1 mM MgCl2, 0.1% NP40, 10% glycerol, pH 8.0); immunoblot; only the target purified
FLAG-TLX = FLAG-TLX (UniProt Q9Y466); test: co-IP; lysates of FLAG-TLX-infected LNCaP cells immunoprecipitated with a FLAG antibody (IgG as control); immunoblot with HDACs and LSD1 antibodies

By UniProt entry, the sequences of proteins in these tests, tags left out.
UniProt Q9Y466: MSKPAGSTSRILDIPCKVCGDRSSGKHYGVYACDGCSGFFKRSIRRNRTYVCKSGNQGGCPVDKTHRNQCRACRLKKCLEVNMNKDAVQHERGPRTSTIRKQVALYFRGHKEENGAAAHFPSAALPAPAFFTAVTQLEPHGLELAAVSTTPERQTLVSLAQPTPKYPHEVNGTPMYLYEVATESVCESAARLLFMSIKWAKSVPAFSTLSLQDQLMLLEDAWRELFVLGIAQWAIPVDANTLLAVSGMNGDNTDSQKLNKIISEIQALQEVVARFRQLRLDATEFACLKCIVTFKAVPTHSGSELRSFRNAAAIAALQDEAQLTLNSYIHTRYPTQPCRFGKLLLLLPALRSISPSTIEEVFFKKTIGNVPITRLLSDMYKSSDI
UniProt O15379: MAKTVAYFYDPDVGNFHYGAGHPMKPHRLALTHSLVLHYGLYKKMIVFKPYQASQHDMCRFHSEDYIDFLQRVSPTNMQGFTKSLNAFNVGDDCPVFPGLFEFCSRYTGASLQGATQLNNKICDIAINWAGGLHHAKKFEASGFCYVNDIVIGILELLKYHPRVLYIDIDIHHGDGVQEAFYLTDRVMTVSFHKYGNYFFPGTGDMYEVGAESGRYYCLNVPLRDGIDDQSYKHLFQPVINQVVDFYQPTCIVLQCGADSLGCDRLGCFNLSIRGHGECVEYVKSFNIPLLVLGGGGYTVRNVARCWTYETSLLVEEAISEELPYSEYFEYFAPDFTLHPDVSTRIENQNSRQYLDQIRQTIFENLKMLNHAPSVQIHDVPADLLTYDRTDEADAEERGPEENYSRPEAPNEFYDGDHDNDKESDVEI
UniProt Q9UQL6: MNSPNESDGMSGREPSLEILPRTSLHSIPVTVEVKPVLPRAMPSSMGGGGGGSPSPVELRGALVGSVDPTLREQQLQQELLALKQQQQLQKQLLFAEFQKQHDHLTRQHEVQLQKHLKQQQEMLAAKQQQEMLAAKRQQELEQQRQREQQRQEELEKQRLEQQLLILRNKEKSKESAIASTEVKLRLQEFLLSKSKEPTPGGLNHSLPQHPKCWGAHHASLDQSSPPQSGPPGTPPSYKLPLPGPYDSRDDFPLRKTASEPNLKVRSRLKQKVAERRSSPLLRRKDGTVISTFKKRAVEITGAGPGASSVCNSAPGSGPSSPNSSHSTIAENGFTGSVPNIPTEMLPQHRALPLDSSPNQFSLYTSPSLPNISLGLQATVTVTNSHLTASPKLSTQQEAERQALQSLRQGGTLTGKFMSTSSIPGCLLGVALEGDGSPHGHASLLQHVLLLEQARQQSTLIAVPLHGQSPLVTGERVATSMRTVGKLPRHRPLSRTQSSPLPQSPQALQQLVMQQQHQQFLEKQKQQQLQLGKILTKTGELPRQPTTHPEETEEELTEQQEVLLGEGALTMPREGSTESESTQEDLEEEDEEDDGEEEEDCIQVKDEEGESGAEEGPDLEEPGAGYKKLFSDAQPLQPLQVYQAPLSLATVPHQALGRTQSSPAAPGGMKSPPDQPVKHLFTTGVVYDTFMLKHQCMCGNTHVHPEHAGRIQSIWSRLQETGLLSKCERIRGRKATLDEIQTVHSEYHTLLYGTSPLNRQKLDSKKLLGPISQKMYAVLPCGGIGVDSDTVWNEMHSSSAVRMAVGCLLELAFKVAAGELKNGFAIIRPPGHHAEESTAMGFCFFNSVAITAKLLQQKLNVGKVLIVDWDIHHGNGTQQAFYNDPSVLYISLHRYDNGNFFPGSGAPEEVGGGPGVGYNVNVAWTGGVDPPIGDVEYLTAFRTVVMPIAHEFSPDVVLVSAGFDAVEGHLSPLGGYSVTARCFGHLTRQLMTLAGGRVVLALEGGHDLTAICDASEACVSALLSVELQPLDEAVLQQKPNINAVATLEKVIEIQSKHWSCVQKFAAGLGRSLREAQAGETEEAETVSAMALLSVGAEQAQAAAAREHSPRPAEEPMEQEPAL
UniProt Q13547: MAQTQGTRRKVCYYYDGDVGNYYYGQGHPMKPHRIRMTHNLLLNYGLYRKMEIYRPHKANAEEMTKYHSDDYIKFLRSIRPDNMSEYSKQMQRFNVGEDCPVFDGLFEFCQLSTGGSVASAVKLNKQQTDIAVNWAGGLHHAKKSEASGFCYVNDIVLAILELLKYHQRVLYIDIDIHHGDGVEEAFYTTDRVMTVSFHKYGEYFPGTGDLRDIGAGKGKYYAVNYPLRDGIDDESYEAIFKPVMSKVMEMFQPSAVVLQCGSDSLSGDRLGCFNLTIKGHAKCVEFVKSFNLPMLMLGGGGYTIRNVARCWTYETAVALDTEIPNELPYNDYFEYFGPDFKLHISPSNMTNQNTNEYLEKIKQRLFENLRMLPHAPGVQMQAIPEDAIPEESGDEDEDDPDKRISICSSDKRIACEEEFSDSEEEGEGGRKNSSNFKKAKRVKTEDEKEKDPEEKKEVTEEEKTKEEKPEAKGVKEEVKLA

binding (GST-TLX(1-385)) | binding (FLAG-TLX) | Substance
binds | binds | histone deacetylase 3 (HDAC3) (from UniProt O15379 1-428) (enzyme)
 | no binding | histone deacetylase 5 (HDAC5) (from UniProt Q9UQL6 1-1122) (enzyme)
binds | binds | histone deacetylase 1 (HDAC1) (from UniProt Q13547 1-482) (enzyme)

— article PMC6013422
